Measurements reported in patent US20100254996A1, “SYNERGISTIC TREATMENT OF CELLS THAT EXPRESS EPHA2 AND ERBB2” (MEDIMMUNE, LLC, priority 2007, published 2010).
Results are given in words; binding and its absence hold for the method and conditions named. In cells and extracts the contact can be indirect. Some binding calls cover weakened binding; strength is not graded here.

The chains behind the UniProt entries cited, without tags or fusion partners. Residues count along the entry.
UniProt P29317, residues 24-976: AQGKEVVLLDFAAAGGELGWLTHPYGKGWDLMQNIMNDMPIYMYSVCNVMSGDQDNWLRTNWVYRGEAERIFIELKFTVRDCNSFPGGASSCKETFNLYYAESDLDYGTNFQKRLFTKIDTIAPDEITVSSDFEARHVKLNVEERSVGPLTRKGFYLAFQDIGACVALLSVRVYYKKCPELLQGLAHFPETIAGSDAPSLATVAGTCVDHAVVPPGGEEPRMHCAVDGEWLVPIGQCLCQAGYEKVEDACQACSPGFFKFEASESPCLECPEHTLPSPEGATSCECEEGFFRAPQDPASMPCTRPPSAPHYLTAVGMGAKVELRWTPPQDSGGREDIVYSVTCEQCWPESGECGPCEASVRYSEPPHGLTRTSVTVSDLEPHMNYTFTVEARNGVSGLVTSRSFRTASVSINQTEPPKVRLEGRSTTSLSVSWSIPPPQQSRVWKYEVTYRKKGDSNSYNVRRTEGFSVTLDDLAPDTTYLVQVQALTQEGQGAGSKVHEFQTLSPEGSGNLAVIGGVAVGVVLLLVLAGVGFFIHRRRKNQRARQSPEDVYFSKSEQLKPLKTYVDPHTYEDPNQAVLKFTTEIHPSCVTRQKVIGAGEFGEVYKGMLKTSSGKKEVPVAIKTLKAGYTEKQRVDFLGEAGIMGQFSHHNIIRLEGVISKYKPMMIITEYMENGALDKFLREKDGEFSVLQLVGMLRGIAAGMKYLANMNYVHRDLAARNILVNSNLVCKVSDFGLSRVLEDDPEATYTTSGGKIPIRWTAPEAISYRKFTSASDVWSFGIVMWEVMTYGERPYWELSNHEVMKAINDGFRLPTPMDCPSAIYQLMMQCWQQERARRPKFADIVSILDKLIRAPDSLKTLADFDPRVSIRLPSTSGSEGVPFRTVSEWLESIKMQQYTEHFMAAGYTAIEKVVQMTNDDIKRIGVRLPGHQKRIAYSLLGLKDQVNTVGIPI

Columns and labels:
[1] = target: myc-tagged human ErbB2 (pcDNA3-erbB2, expressed in COS7 cells) (human) (UniProt P04626); test: co-immunoprecipitation from transfected COS7 cell lysates, immunoblot
[2] = target: myc-tagged human ErbB2 (pcDNA3-erbB2, expressed in COS7 cells) (human) (UniProt P04626); test: reciprocal co-immunoprecipitation from transfected COS7 cell lysates, immunoblot
[3] = target: human ErbB2/HER2 (stably overexpressed in MCF10A cells) (human) (UniProt P04626); test: co-immunoprecipitation from MCF10A.HER2 cell lysates, immunoblot

Measured: binding

human EphA2 (from UniProt P29317 24-976) (receptor)
binds: all assays above
